Paper PMC2996967

Tests used:
[1] = test system: bTTF1 (TTF-1, bacterially produced and purified); experiment: EMSA; conditions: 10 mM HEPES pH 7.9, 10% glycerol, 0.1 mM EDTA, 8 mM MgCl2, 1 mM DTT, 0.15 ug/ml poly(dI-dC), 30 min, room temperature; 6% native PAGE; recombinant protein; label: 32P
[2] = target: T1, TTF-1 in PC Cl3 extract (UniProt P23441); experiment: EMSA supershift; conditions: anti-TTF-1, PC Cl3 extract; 10 mM HEPES pH 7.9, 10% glycerol, 0.1 mM EDTA, 8 mM MgCl2, 1 mM DTT, 0.15 ug/ml poly(dI-dC), 30 min, room temperature; 6% native PAGE; protein in an extract; label: 32P
T1 sequence (looked up, limits assumed): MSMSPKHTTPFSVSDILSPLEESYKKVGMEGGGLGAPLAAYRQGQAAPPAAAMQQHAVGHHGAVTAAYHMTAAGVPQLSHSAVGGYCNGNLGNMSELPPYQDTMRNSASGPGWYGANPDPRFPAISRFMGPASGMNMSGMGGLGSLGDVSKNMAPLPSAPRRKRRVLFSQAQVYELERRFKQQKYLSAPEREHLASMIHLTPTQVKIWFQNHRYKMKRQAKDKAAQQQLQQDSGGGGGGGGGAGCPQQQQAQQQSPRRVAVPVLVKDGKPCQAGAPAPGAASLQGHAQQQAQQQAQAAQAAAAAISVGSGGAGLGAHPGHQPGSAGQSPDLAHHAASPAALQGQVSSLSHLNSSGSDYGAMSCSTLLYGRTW

Row | Sequence | binding result [1] | binding result [2]
1 | CGCACAAGAGCCCTTCTCAAGGGAT (double strand) [FT-1] | binds | binds
2 | GAGAACGTTTATAAGTGTCTGGCTG (double strand) [FT-6] | binds | binds

For at least one entry, the source does not settle the construct or the ends of the probe. For some of these results: Where cells or extracts were used, other partners may take part. For some of these results: Protein sequences can lack the tags named with them.
